{"source": "PubChem BioAssay AID1259254 | NCATS, 2017", "test": "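Gene knock-downs that lead to re-replication, shown by excess G2 DNA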 (primary screen)", "system": "human HCT116 colorectal cancer cells", "reagent": "single siRNA against human genes", "duration": "3 days", "detection": "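Nuclei stained with Hoechst and imaged; cell-cycle phase assigned by DNA content; G2 share scaled per plate, non-targeting siRNA 0%, GMNN siRNA 100%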", "scale": "G2 robust z-score: higher = more G2 cells, more excess DNA replication", "active means": "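An siRNA counts as active if its G2 robust z-score lies at least 5 MADs above the screen median; here such calls match roughly 38% of GMNN control or more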", "note": "The whole screen tested about 59,000 reagents; this is a part drawn at random. Of all reagents, about 1,550 (2.6%) are marked active. 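G2 share is only a proxy for re-replication; each gene was hit by three separate siRNAs, and active genes were retested.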 Reagents against one gene are numbered here. Further read-outs or replicates are left out here. Not given: the amount of reagent."}
{"target gene": "ECM2 (extracellular matrix protein 2)", "reagent": 1, "G2 robust z-score": -0.412, "Outcome": "inactive"}
{"target gene": "ECM2 (extracellular matrix protein 2)", "reagent": 2, "G2 robust z-score": 1.53, "Outcome": "inactive"}
{"target gene": "ECM2 (extracellular matrix protein 2)", "reagent": 3, "G2 robust z-score": 0.488, "Outcome": "inactive"}
{"target gene": "CFAP144P1 (CFAP144 pseudogene 1)", "reagent": 1, "G2 robust z-score": 7.45, "Outcome": "active"}
{"target gene": "CFAP144P1 (CFAP144 pseudogene 1)", "reagent": 2, "G2 robust z-score": -1.28, "Outcome": "inactive"}
{"target gene": "CFAP144P1 (CFAP144 pseudogene 1)", "reagent": 3, "G2 robust z-score": 2.42, "Outcome": "inactive"}
{"target gene": "CCDC88C (coiled-coil and HOOK domain protein 88C)", "reagent": 1, "G2 robust z-score": 0.772, "Outcome": "inactive"}
{"target gene": "CCDC88C (coiled-coil and HOOK domain protein 88C)", "reagent": 2, "G2 robust z-score": 0.356, "Outcome": "inactive"}
{"target gene": "CCDC88C (coiled-coil and HOOK domain protein 88C)", "reagent": 3, "G2 robust z-score": 0.193, "Outcome": "inactive"}
{"target gene": "ZNF702P (zinc finger protein 702, pseudogene)", "reagent": 1, "G2 robust z-score": 0.748, "Outcome": "inactive"}
{"target gene": "ZNF702P (zinc finger protein 702, pseudogene)", "reagent": 2, "G2 robust z-score": -1.09, "Outcome": "inactive"}
{"target gene": "ZNF702P (zinc finger protein 702, pseudogene)", "reagent": 3, "G2 robust z-score": -0.185, "Outcome": "inactive"}

2 successive records from above, quoted:
{"target gene": "CCDC88C (coiled-coil and HOOK domain protein 88C)", "reagent": 1, "G2 robust z-score": 0.772, "Outcome": "inactive"}
{"target gene": "CCDC88C (coiled-coil and HOOK domain protein 88C)", "reagent": 2, "G2 robust z-score": 0.356, "Outcome": "inactive"}
